Experimental data: PubChem BioAssay AID230 (DTP/NCI, 2004)
The list does not hold the whole screen: its compounds were picked by chemical class. Not every dose and run of a compound is shown. T/C is the treated group as % of the vehicle group. Some doses have a count of surviving animals in place of a T/C: the source holds a T/C of zero for them, seemingly a mark for toxic or unscored doses. Some survivor counts are full or nearly so, which does not show that the dose was tolerated: survival well below the control is almost never listed, so the zero probably covers shortened survival too. Counts of survivors are from the toxicity check (mostly the fifth day) where no day follows; animals may have died later. Schedules are NCI's codes, taken here to give the interval after Q, in days (D) or hours (H), and the number of doses after X. For survival time, the PubChem record calls one and a half times the control and up active, and a quarter to a half above the control has no call in these data; cut-offs in other NCI protocols can differ. Marks such as (2×) stand for listed records that agree. Some T/C values carry the count of animals alive at the toxicity check (mostly the fifth day); where neither a count nor a note follows, no animal had died by that day. Some doses were run more than once; their values stand side by side, smallest first.

Test system: C3H/He mice, Gardner lymphosarcoma 6C3HED ip, survival T/C
Assay: NCI In Vivo Anticancer Drug Screen. Data for tumor model Lymphosarcoma Gardner 6C3HED (intraperitoneal) in C3H/He mice
Details: T/C endpoint: survival time, mean or median, schedule: Q01DX010 (ip), vehicle: saline, higher T/C = longer survival
Procedure: The antitumor activity of compounds was measured in mice bearing transplantable tumors. Survival or tumor size were measured and the results are expressed as the measurement made in the treated group (T) divided by the measurement made in the vehicle treated control group (C). The tumor model used in this assay is Lymphosarcoma Gardner 6C3HED (intraperitoneal) in C3H/He mice

| Compound | T/C (dose: 0.25 mg/kg/injection) | T/C (dose: 0.5 mg/kg/injection) | T/C (dose: 1.0 mg/kg/injection) | T/C (dose: 2.0 mg/kg/injection) | survivor count (dose: 4.0 mg/kg/injection) | T/C (dose: 10.0 mg/kg/injection) | T/C (dose: 14.0 mg/kg/injection) | T/C (dose: 20.0 mg/kg/injection) | T/C (dose: 30.0 mg/kg/injection) |
| --- | --- | --- | --- | --- | --- | --- | --- | --- | --- |
| Cc1[nH]c(=O)[nH]c(=O)c1N(CCCl)CCCl | 100 % of control | 103 % of control (2×) | 115 and 121 % of control [5 of 6 alive] | 132 and 150 % of control | 5 of 6 | – | – | – | – |
| CC[C@@H](C)[C@@H]1NC(=O)/C(=C(\C)O)C1=O.c1ccc(CNCCNCc2ccccc2)cc1 | – | – | – | – | – | 103 % of control | 107 % of control | 103 % of control | 103 % of control |
